Primary screen of a compound library

Chains of the proteins cited; added tags and fusions are not shown.
UniProt E9BF75, entry or part of it: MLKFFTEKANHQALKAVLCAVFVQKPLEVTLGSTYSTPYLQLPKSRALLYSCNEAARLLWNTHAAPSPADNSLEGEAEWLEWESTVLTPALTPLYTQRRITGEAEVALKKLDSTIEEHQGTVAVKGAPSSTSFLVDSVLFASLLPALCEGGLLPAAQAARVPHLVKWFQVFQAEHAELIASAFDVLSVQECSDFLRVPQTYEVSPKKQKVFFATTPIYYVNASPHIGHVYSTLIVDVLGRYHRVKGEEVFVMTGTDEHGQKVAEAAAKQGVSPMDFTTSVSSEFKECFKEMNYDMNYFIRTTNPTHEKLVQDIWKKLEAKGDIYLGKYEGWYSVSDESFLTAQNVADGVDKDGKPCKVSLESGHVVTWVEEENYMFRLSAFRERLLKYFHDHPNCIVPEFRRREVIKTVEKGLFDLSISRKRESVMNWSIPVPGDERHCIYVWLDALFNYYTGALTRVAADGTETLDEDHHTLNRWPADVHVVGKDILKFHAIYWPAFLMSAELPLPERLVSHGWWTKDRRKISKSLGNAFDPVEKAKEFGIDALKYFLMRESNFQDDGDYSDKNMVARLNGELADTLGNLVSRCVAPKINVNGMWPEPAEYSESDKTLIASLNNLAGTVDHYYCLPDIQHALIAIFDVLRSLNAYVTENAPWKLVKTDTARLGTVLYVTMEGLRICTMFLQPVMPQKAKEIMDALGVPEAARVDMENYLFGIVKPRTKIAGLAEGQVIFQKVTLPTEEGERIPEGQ

From ChEMBL document CHEMBL3988442, “University of Dundee, Small-Polar-MMV Screening Library” (2021).

LdMetRS: 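Methionyl-tRNA synthetase (putative), Leishmania donovani (UniProt E9BF75). Primary screen of methionyl-tRNA synthetase; the read-out is not stated. The test concentration is not given. Values are per cent inhibition. Size under these conditions: about 68,000 compounds, about 24 of them at 50% or above in at least one test.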
Mtb heat-shock: 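Assay on Mycobacterium tuberculosis, filed only as a heat shock assay from Cornell; the read-out is not stated. The concentration is filed as 10 mM, unlikely as a test dose, so the dose is not known. Direction is inferred from retests: higher values go with stronger inhibition. Of about 69,000 compounds tested this way, about 930 (1.4%) reached 50% or more in at least one test.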

Results are percentages, as filed.
The controls that fix the scale are not given in the record; negative values are as filed.
This is an unselected part of the compounds tested.
A dash means the value is not listed here; it may have been measured.

compound | LdMetRS | Mtb heat-shock
CN1CCC(NC(=O)NCc2csc(Br)c2)CC1 | 15.56% | 11.42%
Cc1cc(C(=O)N2CCCC2c2nc(C)cc(O)n2)on1 (centres unmarked) | 14.06% | -2.205%
Cc1oc(C(C)C)cc1C(=O)N1C[C@H]2CC[C@@H]1CN(c1ncccn1)C2 | 7.904% | -
O=C(N[C@@H]1CN(Cc2cccs2)[C@@H]2CCCO[C@@H]21)c1cscn1 | 11.85% | -
CC(C)Cn1c(=O)nc2n1C(=O)N(c1ccc(F)cc1)C2 | 14.24% | 4.992%
O=C(C1CCOCC1)N1CC[C@@H](O)[C@@H]1Cc1ccncc1 | 6.09% | -2.243%
Cc1n[nH]c2c1C(c1ccsc1)SCC(=O)N2 (centres unmarked) | 3.922% | -6.758%
CN(C)Cc1ccnc(C2CCCN2Cc2ccc3ncccc3c2)n1 (centres unmarked) | 33.9% | -18.94%
CCOCCCNC(=O)NC(C)c1ccc(-n2cncn2)cc1 (centres unmarked) | 8.02% | -6.948%
Cc1ncc(CN2CCC(c3ccnn3C)CC2)n1-c1ccccc1 | -1.863% | -11.06%
CNC(=O)CN1CCc2c(CNc3nccs3)n[nH]c2C1 | 8.934% | -
Nc1cc(-c2cccc3ccnn23)ccn1 | 7.56% | -10.6%
Cc1ccc(CN2CCC(F)(F)C3(CCN(c4cnccn4)C3)C2)o1 (centres unmarked) | 15.24% | -
[H][C@@]12CCN(Cc3nc(C)cs3)C[C@@]1([H])O[C@@H](c1nnc(C)[nH]1)C2 | - | -33.62%
Cc1cccc(CC(=O)NCCCOC(C)C)c1 | 9.312% | -5.428%
Cc1cccc(S(=O)(=O)N2CCC3(CC2)CC(N(C)C)CO3)c1 (centres unmarked) | 14.57% | 7.451%
Fc1ccc(Sc2ccccc2CNC2=NCCN2)cc1.I | - | 6.037%
CC(C)n1nc(Cn2cccn2)c2c1CN(CC1CCOC1)C2 (centres unmarked) | 16.06% | -
Cc1ccccc1C(C)NC(=O)CN1CCN(Cc2ccc(Cl)s2)CC1 (centres unmarked) | -14.54% | 14.25%
CNc1cncc(C2CCCN2C(=O)c2ccc3c(c2)OCCO3)n1 (centres unmarked) | 8.235% | -15.75%
Cc1sc2nc(C(F)(F)F)nc(N3CCN(S(C)(=O)=O)CC3)c2c1C | 15.03% | -2.309%
Cc1cncc(C(=O)N2CCO[C@H]3[C@H](Oc4ccccn4)CC[C@@H]32)c1 | 17.03% | -
Cn1nc2c(c1NC(=O)c1ccc(C3CCCN3C3CCC3)s1)CCC2 (centres unmarked) | 24.87% | 5.418%
CS(=O)(=O)NCc1ncn2c1CN(C(=O)C1CCCO1)CCC2 (centres unmarked) | 13.49% | 10.76%
Cc1ccc(CNC(=O)CN2CCCC(Cn3cncn3)C2)cc1 (centres unmarked) | 24.57% | -9.02%
Cc1cnc(C(=O)N2CCCCC2c2nc(C)cs2)cn1 (centres unmarked) | 21.59% | -5.912%
O=C1CN(c2ccc(CNC(=O)NCC3CCOC3)cc2)CCN1 (centres unmarked) | 13.39% | -7.205%
COc1ccc(C2CCCN2c2cnc3ccccc3n2)c(OC)c1 (centres unmarked) | 26.53% | -18.19%
O=C(NC1CCN(CC2CC2)C1)N1CCC(OC2CCCCC2)CC1 (centres unmarked) | -3.89% | -0.9345%
Cc1nc(CC(=O)N2CCn3c(nnc3C(C)C)C2)cs1 | 21.05% | -2.666%
Cc1nc(C2CCN(S(C)(=O)=O)CC2)nc(N2CCCC2)c1C | 16.46% | -5.222%
N#Cc1c(N2CCCCC2)nsc1-c1cccnc1 | 7.311% | 17.57%
[H][C@@]12COC[C@H](C(=O)N3CCCO3)[C@]1([H])CN(Cc1ccco1)C2 | - | 23.49%
Cc1ccc2c(n1)N(Cc1csc(C)n1)CCN(C1CCOC1)C2 (centres unmarked) | 7.801% | -
CCOc1ncccc1CNC(=O)Nc1ccc(CC)cc1 | 18.75% | -13.67%
Cc1cc(C)n(CCNC(=O)c2ncc[nH]2)c(=O)n1 | 10.14% | -21.74%
CCc1ncc(C(=O)N2CC(Oc3ccccc3Cl)C2)cn1 | 2.749% | 11.62%
Cc1ncsc1C(=O)Nc1cccc(OCC(F)F)n1 | 14.79% | -14.53%
COc1cccc(CC(=O)N2CCc3ncnc(NCCO)c3CC2)c1 | 16.11% | -26.27%
O=C1[C@H]2CN(c3ncccn3)C[C@H]2CN1Cc1ccncc1 | 3.81% | -
Cc1nc(CN(Cc2ccc3c(c2)OCCO3)C2CCCC2)no1 | 13.81% | 1.944%
Cc1nc(C)n(CC2CCCN2Cc2nc(-c3ccoc3)no2)n1 (centres unmarked) | 17.49% | 6.396%
Cc1cnn(CC2CN(CC(=O)N(C)Cc3ccsc3)CCO2)c1 (centres unmarked) | 23.5% | -17.17%
Cc1cc(NCc2ccc(O)cc2)n2nc(C)cc2n1 | 17.43% | 21.53%
O=C(O)C(F)(F)F.[H][C@@]12CN(CC3CCOC3)CCC[C@]1(C(=O)O)CN(c1ncccn1)C2 (some centres unmarked) | - | -0.1911%
O=C(N[C@H]1CC[C@H](O)CC1)c1ccc2nc(-c3ccc(F)cc3)cn2c1 | 11.8% | 1.91%
COc1cc(C)nc(N2CCN(C(=O)COC3CCCC3)CC2)n1 | 11.05% | 6.292%
COc1cc(CNCC(O)c2cccc(F)c2)cc2c1OCO2 (centres unmarked) | 27.37% | -
CC(C)c1nc(CN(C)C(=O)CCc2ccc3c(c2)OCO3)cs1 | -1.023% | 12.37%
Cc1nn(-c2ccccc2)cc1C(=O)N1CCCC(n2ccnc2)C1 (centres unmarked) | 25.14% | 2.823%
CCc1nc(C)sc1CN1CC[C@@](O)(C2CCOCC2)[C@H](C)C1 | 12.91% | 10.69%
CN1CCOCC12CCN(C(=O)C1CCC1)CC2.O=C(O)C(F)(F)F | - | 6.181%
CCN(CCc1nc2cc(C)ccc2[nH]1)C(=O)COC | 4.963% | 22.06%
CNC(=O)c1ccc(CNC(=O)NCCN(C)C2CCCC2)cc1 | 12.58% | 9.641%
CCNC(=O)[C@@H]1C[C@@H](NC(=O)Cc2ccncc2)CN1Cc1ccsc1 | 11.11% | -5.69%
O=C(O)C(F)(F)F.[H][C@@]12CCN(CCc3ccccc3)C[C@@]1([H])O[C@H](C(=O)NC1CCC1)C2 | - | -0.9836%
Cc1nc(C)c(CNC(=O)N2CCc3ccccc3C2CO)s1 (centres unmarked) | 9.946% | -12.76%

For reference, 7 entries once more:

- Cc1ncsc1C(=O)Nc1cccc(OCC(F)F)n1 : LdMetRS: 14.79%; Mtb heat-shock: -14.53%
- CCNC(=O)[C@@H]1C[C@@H](NC(=O)Cc2ccncc2)CN1Cc1ccsc1 : LdMetRS: 11.11%; Mtb heat-shock: -5.69%
- CN1CCOCC12CCN(C(=O)C1CCC1)CC2.O=C(O)C(F)(F)F : Mtb heat-shock: 6.181%
- CS(=O)(=O)NCc1ncn2c1CN(C(=O)C1CCCO1)CCC2 (centres unmarked) : LdMetRS: 13.49%; Mtb heat-shock: 10.76%
- Cc1cnn(CC2CN(CC(=O)N(C)Cc3ccsc3)CCO2)c1 (centres unmarked) : LdMetRS: 23.5%; Mtb heat-shock: -17.17%
- O=C(N[C@H]1CC[C@H](O)CC1)c1ccc2nc(-c3ccc(F)cc3)cn2c1 : LdMetRS: 11.8%; Mtb heat-shock: 1.91%
- Cc1ccc2c(n1)N(Cc1csc(C)n1)CCN(C1CCOC1)C2 (centres unmarked) : LdMetRS: 7.801%